From article PMC5547134 come the findings set out here.

No constants are given. Whether binding was seen depends on the method and setting. In cells and extracts the contact can be indirect. For part of these data: Binding can be weak; no strength is given. Sequences can lack the tags named with a protein.

Test [1] addresses T1, Myc-tagged ILDR1 cytoplasmic fragment (mouse) (mouse) (UniProt Q8CBR1).
T1 sequence: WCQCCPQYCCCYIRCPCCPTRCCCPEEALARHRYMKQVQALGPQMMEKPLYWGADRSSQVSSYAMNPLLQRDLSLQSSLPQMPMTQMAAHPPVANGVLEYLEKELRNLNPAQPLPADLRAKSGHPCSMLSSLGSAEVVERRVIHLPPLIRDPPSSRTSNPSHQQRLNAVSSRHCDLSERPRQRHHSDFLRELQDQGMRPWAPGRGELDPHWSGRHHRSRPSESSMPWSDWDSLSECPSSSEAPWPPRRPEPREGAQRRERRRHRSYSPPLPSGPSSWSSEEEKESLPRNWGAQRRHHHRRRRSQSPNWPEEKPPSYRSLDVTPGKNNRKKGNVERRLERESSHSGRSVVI
Nature of the test: co-IP; HEK293T co-transfected; lysis in 150 mM NaCl, 50 mM Tris pH 7.5, 1% Triton X-100; immobilised anti-Myc antibody at 4 °C overnight; washed three times with 500 mM lysis buffer; western blot with anti-GFP or anti-Myc. A general note: In western blotting, separated proteins are transferred to a membrane and probed.

The target of test [2] is ILDR1α’ cytoplasmic domain (mouse) (mouse). Described as above.

For “EGFP-tagged TRA2A RS domain (mouse) (domain or fragment)”, the binding result in test [1] was “binds”. “EGFP-tagged TRA2B RS domain (mouse) (domain or fragment)”: the binding entry in test [1] was “binds”. With “EGFP-tagged SRSF1 RS domain (mouse) (domain or fragment)”, in test [1], the binding result is “binds”. On to “EGFP-tagged SRSF1 RRM domain (mouse) (domain or fragment)”, for which, in test [1], the binding entry is “no binding”.

B1: EGFP-tagged mouse TRA2B (protein, UniProt P62996 1-288)
chain: MSDSGEQNYGERESRSASRSGSAHGSGKSARHTPARSRSKEDSRRSRSKSRSRSESRSRSRRSSRRHYTRSRSRSRSHRRSRSRSYSRDYRRRHSHSHSPMSTRRRHVGNRANPDPNCCLGVFGLSLYTTERDLREVFSKYGPIADVSIVYDQQSRRSRGFAFVYFENVDDAKEAKERANGMELDGRRIRVDFSITKRPHTPTPGIYMGRPTYGSSRRRDYYDRGYDRGYDDRDYYSRSYRGGGGGGGGWRAAQDRDQIYRRRSPSPYYSRGGYRSRSRSRSYSPRRY
In the case of B1, the binding entry in test [2] is “no binding”.

B2: EGFP-tagged mouse TRA2A (protein, UniProt Q6PFR5 1-281)
chain: MSDVEENNFEGRESRSQSKSPTGTPARVKSESRSGSRSPSRVSKHSESHSRSRSKSRSRSRRHSHRRYTRSRSHSHRRRSRSRSYTPEYRRRRSRSHSPMSNRRRHTGSRANPDPNTCLGVFGLSLYTTERDLREVFSRYGPLSGVNVVYDQRTGRSRGFAFVYFERIDDSKEAMERANGMELDGRRIRVDYSITKRAHTPTPGIYMGRPTHSGGGGGGGGGGGGGGGGGGGRRRDSYYDRGYDRGYDRYEDYDYRRRSPSPYYSRYRSRSRSRSYSPRRY
Turning to B2, the binding entry in test [2] was “no binding”.
